This is one part of the list. The data scatter; read single values as rough.

The target in one test is T1, CARM1 C26 (UniProt Q86X55).
T1 sequence (whole entry): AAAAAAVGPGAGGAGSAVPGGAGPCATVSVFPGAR
Put plainly: log2 mean competition ratio of IA-DTB cysteine labelling (DMSO/compound) (log2 ratio); higher = stronger cysteine engagement by compound. The note with it: 50 µM; treatment time: 4 h; cell line lysate: HEK293T. The protocol:
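IA-DTB competitive cysteine chemoproteomics in HEK293T RIPA lysate. Lysates were treated with compound 29 or 30 at 50 or 200 µM for 4 h, then IA-DTB (500 µM, 1 h), trypsin-digested, NeutrAvidin-enriched and analysed by diaPASEF. Competition ratio = intensity DMSO / intensity compound (n=4 treated, n=64 DMSO); binding: mean log2 CR ≥ 1 and p ≤ 0.05 plus QC filters. Target is the cysteine site.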
For `O=C(CCl)N[C@H]1CCCc2ccccc21`, the “log2 mean competition ratio” value stood at 0.509.

Regarding `O=C(CCl)N[C@@H]1CCCc2ccccc21`, the “log2 mean competition ratio” value was 0.0738.

Staying with this test, now noted: 200 µM; treatment time: 4 h; cell line lysate: HEK293T.
In the case of `O=C(CCl)N[C@H]1CCCc2ccccc21`, the “log2 mean competition ratio” value is -0.113.

On to `O=C(CCl)N[C@@H]1CCCc2ccccc21`, for which the “log2 mean competition ratio” value is -0.295.

These data come from the supplement of paper PMC11732987, “Enantioselective OTUD7B fragment discovery through chemoproteomics screening and high-throughput optimisation” (Communications Chemistry, 2025).
